Publication PMC2765987 (2009)

The chains behind the UniProt entries cited, without tags or fusion partners. Where a name states a change or a piece, a line headed by the entry shows the natural chain unless it says otherwise.
UniProt Q5H9R7: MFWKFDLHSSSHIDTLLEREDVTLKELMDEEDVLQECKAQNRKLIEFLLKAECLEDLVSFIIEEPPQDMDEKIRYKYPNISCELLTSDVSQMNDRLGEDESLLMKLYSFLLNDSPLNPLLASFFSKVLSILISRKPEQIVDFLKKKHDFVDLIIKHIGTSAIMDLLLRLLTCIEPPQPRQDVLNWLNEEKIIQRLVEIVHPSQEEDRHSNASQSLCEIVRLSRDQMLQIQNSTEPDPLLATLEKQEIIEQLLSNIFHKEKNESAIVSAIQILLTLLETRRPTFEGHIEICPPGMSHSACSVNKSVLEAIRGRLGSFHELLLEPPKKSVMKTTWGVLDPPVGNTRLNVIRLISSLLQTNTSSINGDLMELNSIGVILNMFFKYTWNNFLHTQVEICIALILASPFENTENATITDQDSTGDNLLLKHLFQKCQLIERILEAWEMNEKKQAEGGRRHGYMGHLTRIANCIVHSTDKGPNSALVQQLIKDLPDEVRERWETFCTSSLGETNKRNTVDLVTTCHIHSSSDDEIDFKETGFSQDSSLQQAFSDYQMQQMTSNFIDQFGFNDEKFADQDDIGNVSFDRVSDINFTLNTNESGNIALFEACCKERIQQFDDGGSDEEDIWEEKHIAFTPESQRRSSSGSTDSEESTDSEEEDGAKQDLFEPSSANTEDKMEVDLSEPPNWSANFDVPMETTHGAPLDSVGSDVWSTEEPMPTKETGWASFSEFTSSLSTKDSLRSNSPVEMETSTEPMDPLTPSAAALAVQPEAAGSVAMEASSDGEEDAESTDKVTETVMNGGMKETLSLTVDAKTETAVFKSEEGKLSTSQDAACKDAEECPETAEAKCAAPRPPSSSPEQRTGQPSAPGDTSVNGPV

Molecular target: FLAG-tagged PP6R3 C-terminal region (512-873) (human) (UniProt Q5H9R7)
Test: co-IP; FLAG-tagged PP6R3 and fragments expressed in HEK293 cells, precipitated with anti-FLAG (M2) beads; endogenous PP6c detected by immunoblotting

- binding: no binding
B1: PP6 catalytic subunit, endogenous (enzyme, UniProt O00743 1-305)
chain: MAPLDLDKYVEIARLCKYLPENDLKRLCDYVCDLLLEESNVQPVSTPVTVCGDIHGQFYDLCELFRTGGQVPDTNYIFMGDFVDRGYYSLETFTYLLALKAKWPDRITLLRGNHESRQITQVYGFYDECQTKYGNANAWRYCTKVFDMLTVAALIDEQILCVHGGLSPDIKTLDQIRTIERNQEIPHKGAFCDLVWSDPEDVDTWAISPRGAGWLFGAKVTNEFVHINNLKLICRAHQLVHEGYKFMFDEKLVTVWSAPNYCYRCGNIASIMVFKDVNTREPKLFRAVPDSERVIPPRTTTPYFL

Results are given in words; binding and its absence hold for the method and conditions named. In cells and extracts the contact can be indirect.
